Experimental data taken from PMC4415471.
No constants are given. Whether binding was seen depends on the method and setting. In cells and extracts the contact can be indirect. Some entries that bind do so weakly or less than the wild type.

Chains of the proteins cited; added tags and fusions are not shown.
UniProt Q99996: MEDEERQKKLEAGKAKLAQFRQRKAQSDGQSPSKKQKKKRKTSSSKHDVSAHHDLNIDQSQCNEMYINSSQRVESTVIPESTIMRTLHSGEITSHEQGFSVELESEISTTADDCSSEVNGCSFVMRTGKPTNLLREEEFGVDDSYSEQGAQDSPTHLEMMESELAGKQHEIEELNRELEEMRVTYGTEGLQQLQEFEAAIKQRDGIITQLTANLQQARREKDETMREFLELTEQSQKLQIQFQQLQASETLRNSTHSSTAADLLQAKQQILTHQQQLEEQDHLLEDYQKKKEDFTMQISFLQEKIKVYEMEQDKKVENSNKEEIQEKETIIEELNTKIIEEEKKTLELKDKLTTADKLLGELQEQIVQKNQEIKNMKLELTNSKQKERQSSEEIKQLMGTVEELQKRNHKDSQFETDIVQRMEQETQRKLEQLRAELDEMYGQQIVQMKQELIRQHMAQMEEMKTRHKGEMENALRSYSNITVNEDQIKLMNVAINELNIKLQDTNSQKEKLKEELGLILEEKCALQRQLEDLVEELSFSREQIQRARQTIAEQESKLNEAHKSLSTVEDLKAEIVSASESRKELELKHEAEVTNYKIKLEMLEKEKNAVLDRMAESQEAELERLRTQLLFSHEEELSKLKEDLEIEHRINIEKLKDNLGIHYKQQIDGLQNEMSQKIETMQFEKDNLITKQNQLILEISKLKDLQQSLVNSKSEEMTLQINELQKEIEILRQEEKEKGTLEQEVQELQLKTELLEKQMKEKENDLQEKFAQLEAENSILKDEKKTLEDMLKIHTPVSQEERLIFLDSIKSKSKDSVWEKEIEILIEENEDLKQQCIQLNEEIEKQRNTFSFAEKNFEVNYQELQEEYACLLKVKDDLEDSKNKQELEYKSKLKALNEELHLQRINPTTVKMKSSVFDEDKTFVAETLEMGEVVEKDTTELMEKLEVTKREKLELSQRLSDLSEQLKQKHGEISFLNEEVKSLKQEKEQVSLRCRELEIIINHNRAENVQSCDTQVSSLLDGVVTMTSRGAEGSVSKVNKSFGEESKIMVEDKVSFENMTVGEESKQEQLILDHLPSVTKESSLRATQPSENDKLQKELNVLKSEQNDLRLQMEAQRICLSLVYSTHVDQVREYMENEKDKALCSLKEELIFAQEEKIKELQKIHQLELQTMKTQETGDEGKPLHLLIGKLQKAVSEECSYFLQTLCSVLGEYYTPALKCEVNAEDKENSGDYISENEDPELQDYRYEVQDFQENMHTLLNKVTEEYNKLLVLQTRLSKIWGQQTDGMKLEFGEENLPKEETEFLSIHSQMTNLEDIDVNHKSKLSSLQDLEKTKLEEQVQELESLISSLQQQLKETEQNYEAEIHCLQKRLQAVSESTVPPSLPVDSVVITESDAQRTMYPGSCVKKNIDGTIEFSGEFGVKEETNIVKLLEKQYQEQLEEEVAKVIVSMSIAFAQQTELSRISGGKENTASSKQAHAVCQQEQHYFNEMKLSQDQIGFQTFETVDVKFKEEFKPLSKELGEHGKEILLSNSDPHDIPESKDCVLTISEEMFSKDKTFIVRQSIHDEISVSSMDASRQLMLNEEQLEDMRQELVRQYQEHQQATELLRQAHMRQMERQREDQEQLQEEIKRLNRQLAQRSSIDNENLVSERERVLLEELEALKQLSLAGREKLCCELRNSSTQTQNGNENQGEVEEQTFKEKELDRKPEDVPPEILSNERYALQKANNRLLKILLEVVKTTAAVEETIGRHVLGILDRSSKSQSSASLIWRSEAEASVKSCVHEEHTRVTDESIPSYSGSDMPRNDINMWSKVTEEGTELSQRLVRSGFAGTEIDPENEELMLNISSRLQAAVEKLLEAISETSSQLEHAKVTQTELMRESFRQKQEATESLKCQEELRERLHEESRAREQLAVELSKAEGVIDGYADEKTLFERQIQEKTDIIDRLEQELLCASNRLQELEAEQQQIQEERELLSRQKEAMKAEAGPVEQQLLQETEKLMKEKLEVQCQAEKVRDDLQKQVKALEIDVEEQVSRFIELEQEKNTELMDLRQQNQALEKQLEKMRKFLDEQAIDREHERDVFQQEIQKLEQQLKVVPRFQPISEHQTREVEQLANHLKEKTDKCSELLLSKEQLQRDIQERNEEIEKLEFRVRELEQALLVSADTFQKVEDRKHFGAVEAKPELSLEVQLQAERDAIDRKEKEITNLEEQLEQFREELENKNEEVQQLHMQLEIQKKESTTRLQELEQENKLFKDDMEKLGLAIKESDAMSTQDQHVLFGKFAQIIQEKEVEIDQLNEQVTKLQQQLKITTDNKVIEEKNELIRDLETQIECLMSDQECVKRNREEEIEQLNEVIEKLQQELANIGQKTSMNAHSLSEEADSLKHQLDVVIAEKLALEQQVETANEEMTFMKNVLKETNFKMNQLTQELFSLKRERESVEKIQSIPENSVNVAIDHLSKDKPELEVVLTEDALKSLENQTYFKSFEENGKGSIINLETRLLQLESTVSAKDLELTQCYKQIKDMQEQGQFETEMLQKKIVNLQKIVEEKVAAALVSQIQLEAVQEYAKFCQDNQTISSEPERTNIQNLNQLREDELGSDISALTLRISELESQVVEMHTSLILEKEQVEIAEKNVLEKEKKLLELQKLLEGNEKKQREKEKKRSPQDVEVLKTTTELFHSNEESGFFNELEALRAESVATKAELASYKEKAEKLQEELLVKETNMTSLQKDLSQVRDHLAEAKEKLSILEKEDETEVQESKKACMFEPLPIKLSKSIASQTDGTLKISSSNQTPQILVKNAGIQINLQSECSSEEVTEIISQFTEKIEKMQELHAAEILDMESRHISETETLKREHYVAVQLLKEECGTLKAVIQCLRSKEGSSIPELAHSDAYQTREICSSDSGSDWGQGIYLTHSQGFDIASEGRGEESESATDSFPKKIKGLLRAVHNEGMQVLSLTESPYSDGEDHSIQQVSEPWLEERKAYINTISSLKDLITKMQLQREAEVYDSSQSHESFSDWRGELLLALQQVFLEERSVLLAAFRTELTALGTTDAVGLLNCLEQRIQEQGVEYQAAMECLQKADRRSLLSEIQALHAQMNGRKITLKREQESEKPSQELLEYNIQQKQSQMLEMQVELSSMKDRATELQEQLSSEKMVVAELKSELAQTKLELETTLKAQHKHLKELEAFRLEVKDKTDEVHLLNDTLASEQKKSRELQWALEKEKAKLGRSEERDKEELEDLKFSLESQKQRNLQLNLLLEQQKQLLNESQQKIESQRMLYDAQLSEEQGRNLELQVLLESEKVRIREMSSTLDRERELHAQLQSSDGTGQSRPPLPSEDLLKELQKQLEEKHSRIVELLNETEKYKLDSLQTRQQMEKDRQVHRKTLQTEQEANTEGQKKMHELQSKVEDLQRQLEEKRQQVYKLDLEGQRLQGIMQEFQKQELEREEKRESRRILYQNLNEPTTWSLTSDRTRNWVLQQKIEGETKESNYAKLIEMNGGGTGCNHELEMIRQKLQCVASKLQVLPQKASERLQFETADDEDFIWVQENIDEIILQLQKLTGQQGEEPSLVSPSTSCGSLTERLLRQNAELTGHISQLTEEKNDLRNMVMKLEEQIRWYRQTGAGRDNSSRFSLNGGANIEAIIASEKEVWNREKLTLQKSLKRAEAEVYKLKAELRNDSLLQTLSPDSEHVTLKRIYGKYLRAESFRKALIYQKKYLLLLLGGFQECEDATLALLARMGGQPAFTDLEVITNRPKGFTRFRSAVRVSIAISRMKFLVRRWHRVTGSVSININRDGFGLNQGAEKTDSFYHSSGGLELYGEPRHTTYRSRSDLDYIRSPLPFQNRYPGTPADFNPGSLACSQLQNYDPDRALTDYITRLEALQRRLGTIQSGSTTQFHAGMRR
UniProt Q96N67: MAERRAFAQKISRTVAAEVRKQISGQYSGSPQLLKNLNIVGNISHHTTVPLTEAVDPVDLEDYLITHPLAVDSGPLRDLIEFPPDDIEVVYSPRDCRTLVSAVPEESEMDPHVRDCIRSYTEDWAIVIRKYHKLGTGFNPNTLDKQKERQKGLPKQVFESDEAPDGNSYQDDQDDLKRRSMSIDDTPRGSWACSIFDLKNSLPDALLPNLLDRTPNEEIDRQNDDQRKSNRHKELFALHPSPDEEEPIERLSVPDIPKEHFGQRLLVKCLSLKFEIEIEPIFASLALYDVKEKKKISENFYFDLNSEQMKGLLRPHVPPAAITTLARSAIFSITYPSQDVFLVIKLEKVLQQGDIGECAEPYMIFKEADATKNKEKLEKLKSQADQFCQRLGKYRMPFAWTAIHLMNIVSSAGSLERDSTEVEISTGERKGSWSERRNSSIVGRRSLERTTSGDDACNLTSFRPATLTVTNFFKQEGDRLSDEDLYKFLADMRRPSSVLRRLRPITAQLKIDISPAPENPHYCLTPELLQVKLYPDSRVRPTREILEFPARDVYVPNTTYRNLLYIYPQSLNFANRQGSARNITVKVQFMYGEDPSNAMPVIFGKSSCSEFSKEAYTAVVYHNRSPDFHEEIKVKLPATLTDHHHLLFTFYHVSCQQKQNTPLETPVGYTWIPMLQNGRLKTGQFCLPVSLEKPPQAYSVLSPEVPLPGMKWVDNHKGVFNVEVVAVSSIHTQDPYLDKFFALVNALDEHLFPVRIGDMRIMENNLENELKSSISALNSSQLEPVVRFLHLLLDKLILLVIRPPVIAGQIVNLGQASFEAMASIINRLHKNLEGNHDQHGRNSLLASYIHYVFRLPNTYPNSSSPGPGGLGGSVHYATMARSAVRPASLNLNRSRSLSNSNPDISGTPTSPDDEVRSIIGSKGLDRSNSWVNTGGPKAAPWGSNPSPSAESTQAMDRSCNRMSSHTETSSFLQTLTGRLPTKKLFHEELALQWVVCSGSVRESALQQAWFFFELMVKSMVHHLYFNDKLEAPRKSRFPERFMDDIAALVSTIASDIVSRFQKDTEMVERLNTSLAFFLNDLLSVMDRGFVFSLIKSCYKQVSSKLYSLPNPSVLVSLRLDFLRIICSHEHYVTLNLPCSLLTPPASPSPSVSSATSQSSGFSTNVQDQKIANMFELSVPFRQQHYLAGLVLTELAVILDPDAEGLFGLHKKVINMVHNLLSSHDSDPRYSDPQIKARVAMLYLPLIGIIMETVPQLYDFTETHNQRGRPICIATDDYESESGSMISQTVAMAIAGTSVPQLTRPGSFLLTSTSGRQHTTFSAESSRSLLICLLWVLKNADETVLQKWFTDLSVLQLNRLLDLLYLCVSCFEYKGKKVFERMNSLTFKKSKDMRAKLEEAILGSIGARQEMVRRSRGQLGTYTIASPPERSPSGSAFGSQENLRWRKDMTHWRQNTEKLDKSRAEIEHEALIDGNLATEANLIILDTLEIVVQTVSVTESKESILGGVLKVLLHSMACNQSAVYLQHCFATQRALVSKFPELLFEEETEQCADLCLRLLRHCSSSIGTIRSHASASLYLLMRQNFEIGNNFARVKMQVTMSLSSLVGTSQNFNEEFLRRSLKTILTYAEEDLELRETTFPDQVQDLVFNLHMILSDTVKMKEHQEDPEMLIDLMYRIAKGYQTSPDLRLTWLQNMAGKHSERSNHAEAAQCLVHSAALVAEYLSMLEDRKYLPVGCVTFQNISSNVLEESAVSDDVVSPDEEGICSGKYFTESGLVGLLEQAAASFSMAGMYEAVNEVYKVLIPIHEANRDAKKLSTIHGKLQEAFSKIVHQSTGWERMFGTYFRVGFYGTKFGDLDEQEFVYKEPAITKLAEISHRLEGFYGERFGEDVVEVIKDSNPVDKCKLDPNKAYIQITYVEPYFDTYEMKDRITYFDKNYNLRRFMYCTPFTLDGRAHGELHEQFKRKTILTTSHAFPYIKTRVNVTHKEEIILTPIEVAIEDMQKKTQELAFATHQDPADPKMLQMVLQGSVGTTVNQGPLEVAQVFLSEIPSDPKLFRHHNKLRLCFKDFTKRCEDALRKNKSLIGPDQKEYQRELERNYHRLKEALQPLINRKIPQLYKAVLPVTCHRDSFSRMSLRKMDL

Target: GFP-tagged full length human MVI heavy chain (human) (UniProt Q9UM54)
Experiment: co-IP; lysates of HEK 293 cells transiently transfected with GFP-tagged full length human MVI; anti-MVI antibody or normal rabbit serum overnight at 4°C, A/G magnetic beads; 50 mM Tris pH 7.5, 150 mM NaCl, 0.2% Triton X-100, 2 mM MgATP; blot with anti-AKAP9 or anti-DOCK7

Row | binding | Substance
1 | binds | AKAP9, endogenous in HEK 293 cells (from UniProt Q99996 1-3907)
2 | binds | DOCK7, endogenous in HEK 293 cells (from UniProt Q96N67 1-2140)
